Data as given in PubChem BioAssay AID1224828 (NIAID, 2016).
Shown is an unselected part of about 17,000 deposited reagents. Of all reagents, 762 (4.5%) are marked active. 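Active calls include both raised and lowered p65 entry, mostly lowered; wells with fewer than 50 cells lack a z-score.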 The raw values are shown without normalisation. A number with no mark means an inactive call.

Purpose: 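Find genes required for NF-kappaB p65 moving into the nucleus after LPS in mouse macrophages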 (primary screen)
Cell system: mouse RAW264.7 G9 macrophage reporter cells (GFP-p65, Tnf promoter-mCherry)
Knock-down reagent: siRNA pool against mouse genes, 100 nM
Timing: 2 days siRNA transfection, then 40 min LPS before fixation
Treatment: LPS (Salmonella minnesota R595) at 10 ng/ml
Read-out: 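Imaged p65 nuclear translocation ratio, normalised to the plate median, converted to robust z-scores and averaged across two replicates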
Scale: p65 translocation robust z-score: higher = more nuclear NF-kappaB p65 after LPS than the plate median; nuclear/cytoplasmic p65 ratio: higher = more nuclear NF-kappaB p65
Rule for the call: 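Active if robust z is above 3.3 (negative regulators) or below -1.56, the Tlr4 control median (positive regulators); activity score 50 or more; control wells not called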
Meaning of the calls: active = hit (p65 shift raised or lowered); inactive = no clear change

target	p65 translocation robust z-score	nuclear/cytoplasmic p65 ratio, rep 1	nuclear/cytoplasmic p65 ratio, rep 2	low cell count flag
Coro2a	0.47	1.44	1.52	enough cells to score
Usp43	1.98	1.67	1.43	enough cells to score
Cenpt	-0.4	1.49	1.45	enough cells to score
Parp2	0.19	1.68	1.61	enough cells to score
Nubp1		1.22	1.24	fewer than 50 cells per well; well left out of scoring
Krt79	-2.81 (active)	1.16	1.37	enough cells to score
Akr1c6	-0.51	1.56	1.52	enough cells to score
Cyp1a1	1.34	1.7	1.52	enough cells to score
Rab5b	2.32	1.79	1.89	enough cells to score
Cd84	-0.04	1.4	1.37	enough cells to score
Numbl	-0.31	1.81	1.36	enough cells to score
Serinc2		1.37	1.23	fewer than 50 cells per well; well left out of scoring
Chdh	0.49	1.69	1.84	enough cells to score
Rps6ka2	1.66	1.88	1.64	enough cells to score
Cd79a	0.07	1.56	1.39	enough cells to score

Continued; the last 2 above are carried over.
target	p65 translocation robust z-score	nuclear/cytoplasmic p65 ratio, rep 1	nuclear/cytoplasmic p65 ratio, rep 2	low cell count flag
Rps6ka2	1.66	1.88	1.64	enough cells to score
Cd79a	0.07	1.56	1.39	enough cells to score
Abt1	-0.25	1.61	1.54	enough cells to score
D030056L22Rik	0.62	1.64	1.91	enough cells to score
Or9s15	-0.28	1.65	1.31	enough cells to score
Vim	0.2	1.57	1.5	enough cells to score
Gpcpd1	-2 (active)	1.11	1.07	enough cells to score
Ptf1a		1.3	1.25	fewer than 50 cells per well; well left out of scoring
Ndufc2	0.77	1.51	1.51	enough cells to score
Caps2	-0.38	1.54	1.74	enough cells to score
Eef1akmt2		1.15	2.01	fewer than 50 cells per well; well left out of scoring
Mbd3l1	0.25	1.43	1.42	enough cells to score
Zc2hc1a		1.27	1.38	fewer than 50 cells per well; well left out of scoring
Or2bd2	1.63	1.4	1.56	enough cells to score
Tspan3		1.35	1.11	fewer than 50 cells per well; well left out of scoring
Exo1	-0.51	1.41	1.29	enough cells to score
Fmn1	-1.23	1.39	1.43	enough cells to score
Dnajb5	-0.29	1.45	1.31	enough cells to score
Zfp12	-0.24	1.36	1.53	enough cells to score
Srr	0.68	1.46	1.35	enough cells to score
Figla	-1.05	1.39	1.36	enough cells to score
Gphb5		1.44	0	fewer than 50 cells per well; well left out of scoring
Adgre1	-0.8	1.39	1.47	enough cells to score
Zhx1	-0.2	1.48	1.48	enough cells to score
Adgra3	0.59	1.57	1.69	enough cells to score
Cmtm3	-0.43	1.52	1.72	enough cells to score
Hspa12b	-0.4	1.52	1.35	enough cells to score
